Results: PubChem BioAssay AID330 (DTP/NCI, 2004)
The list shows only some results of the screen, not a fair sample: it gathers tests that were run many times, whatever their T/C, doses with no T/C, and many T/C values between a quarter and a half above the control. Other doses and runs of a compound stand elsewhere. T/C: endpoint of the treated group in % of that of the vehicle group. Some entries give survivors of the animals treated and no T/C: the source holds a T/C of zero for them, seemingly a mark for toxic or unscored doses. Some doses without a T/C left all or most animals alive at the check, yet need not have been tolerated: survival well below the control is almost never listed, so the zero probably covers shortened survival too. Survivors were counted at the toxicity check, usually on the fifth day, unless a day is given; later deaths do not show. Schedules are NCI's codes, read here as Q, the interval in days (D) or hours (H), X, the number of doses. Some entries hold several experiments; the results are listed from low to high. For survival time, the PubChem record calls one and a half times the control and up active, and a quarter to a half above the control has no call in these data; cut-offs in other NCI protocols can differ. Some T/C values are followed by the survivors on the day toxicity was checked, most often the fifth; where none is given, no animal had died by that day.

System: P388 leukemia ip, CD2F1 mice, survival T/C
Assay: NCI In Vivo Anticancer Drug Screen. Data for tumor model P388 Leukemia (intraperitoneal) in CD2F1 (CDF1) mice
Settings: T/C endpoint: median survival time, higher T/C = longer survival
[1] = dose: 25.0 mg/kg/injection, schedule: Q01DX009 (ip), vehicle: saline with Tween-80
[2] = dose: 200.0 mg/kg/injection, schedule: Q01DX005 (ip), vehicle: saline with Tween-80
[3] = dose: 200.0 mg/kg/injection, schedule: Q01DX005 (ip), vehicle: Klucel (hydroxypropylcellulose) (HPC)
[4] = dose: 50.0 mg/kg/injection, schedule: Q01DX009 (ip), vehicle: saline with Tween-80
[5] = dose: 120.0 mg/kg/injection, schedule: Q01DX005 (ip), vehicle: saline with Tween-80
[6] = dose: 240.0 mg/kg/injection, schedule: Q01DX005 (ip), vehicle: saline with Tween-80
[7] = dose: 100.0 mg/kg/injection, schedule: Q01DX009 (ip), vehicle: saline with Tween-80
[8] = dose: 200.0 mg/kg/injection, schedule: Q01DX005 (ip), vehicle: saline
[9] = dose: 200.0 mg/kg/injection, schedule: Q01DX009 (ip), vehicle: saline with Tween-80
[10] = dose: 200.0 mg/kg/injection, schedule: Q01DX009 (ip), vehicle: Klucel (hydroxypropylcellulose) (HPC)
[11] = dose: 50.0 mg/kg/injection, schedule: Q01DX009 (ip), vehicle: other

For `C[CH2][Sn]([CH2]C)([CH2]C)[O]C(=O)CO`, the survivor count (dose: 6.25 mg/kg/injection, schedule: Q01DX009 (ip), vehicle: saline with Tween-80) was 3 of 6, the survivor count (dose: 12.5 mg/kg/injection, schedule: Q01DX009 (ip), vehicle: saline with Tween-80) was 0 of 6 and the survivor count [1] was 0 of 6.
`[O-][n+]1ccccc1C[P+](c1ccccc1)(c1ccccc1)c1ccccc1` was tested, and the survivor count (dose: 6.25 mg/kg/injection, schedule: Q01DX009 (ip), vehicle: water) was 6 of 6, the survivor count (dose: 25.0 mg/kg/injection, schedule: Q01DX009 (ip), vehicle: water) was 6 of 6 and the survivor count (dose: 100.0 mg/kg/injection, schedule: Q01DX009 (ip), vehicle: water) was 1 of 6 and 2 of 6.
With `Nc1nc2nc(/N=N/SCCC(=O)O)[nH]c2c(=O)[nH]1` the survivor count [2] was 3 of 6.
In the case of `COc1cccc(C=O)c1OC(=O)Oc1ccccc1`, the T/C (dose: 12.5 mg/kg/injection, schedule: Q01DX009 (ip), vehicle: distilled water + Tween-80) was 131 % of control, the survivor count (dose: 100.0 mg/kg/injection, schedule: Q01DX009 (ip), vehicle: distilled water + Tween-80) was 2 of 6 and the survivor count (dose: 200.0 mg/kg/injection, schedule: Q01DX009 (ip), vehicle: distilled water + Tween-80) was 0 of 6. The survivor count (dose: 400.0 mg/kg/injection, schedule: Q01DX009 (ip), vehicle: distilled water + Tween-80) was 0 of 6.
For `CC1(C)CC(Nc2ccccc2)=CC(N2CCOCC2)=N1`, the survivor count [3] was 3 of 6.
In the case of `NC(=O)c1cn[nH]c1N`, the survivor count (dose: 25.0 mg/kg/injection, schedule: Q01DX009 (ip), vehicle: saline) was 5 of 6.
With `O=C1C=CC(=O)C2=C1CCCC2` the survivor count [1] was 0 of 6 and the survivor count [4] was 0 of 6.
With `COc1ccc(C(c2c(O)c3ccccc3oc2=O)N2CCOCC2)cc1` (configuration not stated) the survivor count [5] was 2 of 6 and the survivor count [6] was 1 of 6.
In the case of `Clc1ccc(/C=N\N=C\c2ccc(Cl)c(Cl)c2)cc1Cl`, the survivor count [7] was 6 of 6.
For `Cc1cc(C)c(N=Cc2cccs2)c(C)c1`, the survivor count (dose: 100.0 mg/kg/injection, schedule: Q01DX009 (ip), vehicle: saline) was 6 of 6.
With `N#Cc1ncnc2nc[nH]c12` the survivor count [3] was 0 of 5.
In the case of `Nc1ncnc2c1nc(N)n2C1OC(CO)C(O)C1O` (configuration not stated), the T/C (dose: 12.0 mg/kg/injection, schedule: Q01DX005 (ip), vehicle: saline) was 126 % of control, the T/C (dose: 12.5 mg/kg/injection, schedule: Q01DX005 (ip), vehicle: saline) was 138 % of control and the survivor count (dose: 50.0 mg/kg/injection, schedule: Q01DX005 (ip), vehicle: saline) was 3 of 6 and 5 of 6. For the same compound, the survivor count (dose: 100.0 mg/kg/injection, schedule: Q01DX005 (ip), vehicle: saline) was 0 of 6 and the survivor count [8] was 0 of 6.
For `Cc1ccc(S(=O)(=O)NC(=O)OC23COCN2COC3)cc1`, the T/C [9] was 132 % of control and the T/C (dose: 400.0 mg/kg/injection, schedule: Q01DX009 (ip), vehicle: saline with Tween-80) was 126 % of control.
With `CCCN1CN2CCOC2C(C)(C)C1` (configuration not stated) the T/C (dose: 160.0 mg/kg/injection, schedule: Q01DX009 (ip), vehicle: saline with Tween-80) was 128 % of control.
For `COc1cc2c(c(OC)c1OC)-c1cc3c(cc1CC1COC(=O)C1C2)OCO3` (configuration not stated), the survivor count (dose: 400.0 mg/kg/injection, schedule: Q04DX002 (ip), vehicle: saline with Tween-80) was 6 of 6.
With `CC1(C)N=C(N)N=C(N)N1c1cc(C(F)(F)F)cc(C(F)(F)F)c1` the survivor count (dose: 60.0 mg/kg/injection, schedule: Q01DX005 (ip), vehicle: saline) was 0 of 6, the survivor count (dose: 120.0 mg/kg/injection, schedule: Q01DX005 (ip), vehicle: saline) was 0 of 6 and the survivor count (dose: 240.0 mg/kg/injection, schedule: Q01DX005 (ip), vehicle: saline) was 0 of 6.
For `O=C(O)c1ccccc1C(=O)Nc1ccccc1C(F)(F)F`, the survivor count (dose: 600.0 mg/kg/injection, schedule: Q01DX009 (ip), vehicle: saline with Tween-80) was 3 of 6.
`O=[N+]([O-])c1cccc(N/N=C\c2c(Cl)[nH]c3ccccc23)c1` was tested, and the survivor count (dose: 200.0 mg/kg/injection, schedule: Q01DX001 (ip), vehicle: Klucel (hydroxypropylcellulose) (HPC)) was 6 of 6 and the survivor count (dose: 400.0 mg/kg/injection, schedule: Q01DX001 (ip), vehicle: Klucel (hydroxypropylcellulose) (HPC)) was 6 of 6.
In the case of `O=C1/C(=C/C=C/c2ccccc2)C(=S)SN1Cc1ccco1`, the survivor count [10] was 6 of 6.
In the case of `Cc1ccc(N=C(N)NC#N)cc1`, the survivor count (dose: 400.0 mg/kg/injection, schedule: Q04DX003 (ip), vehicle: saline with Tween-80) was 6 of 6.
With `CC(C)CCC1(CCCl)C(=O)NC(=O)NC1=O` the survivor count [3] was 0 of 6.
For `O=P(CCCCBr)(NCc1ccccc1)c1ccccc1` (configuration not stated), the survivor count (dose: 400.0 mg/kg/injection, schedule: Q04DX003 (ip), vehicle: Klucel (hydroxypropylcellulose) (HPC)) was 0 of 6.
For `c1ccc2c(c1)nnn1c3cnccc3nc21`, the T/C [1] was 126 % of control [5 of 6 alive] and the survivor count [4] was 0 of 6.
For `S=c1sc2ccccc2n1CN1CCOCC1`, the T/C [2] was 128 and 131 % of control and the survivor count (dose: 400.0 mg/kg/injection, schedule: Q01DX005 (ip), vehicle: saline with Tween-80) was 3 of 6.
`O=C(CNC(=O)Nc1ccc(Cl)c(Cl)c1)N/N=C/C=C/c1ccccc1` was tested, and the survivor count (dose: 60.0 mg/kg/injection, schedule: Q01DX005 (ip), vehicle: saline with Tween-80) was 6 of 6, the survivor count [5] was 6 of 6 and the survivor count [6] was 6 of 6.
`O=C1C2CCC(C2)[CH]1[Hg][Cl]` (configuration not stated) was tested, and the survivor count [4] was 2 of 6, the survivor count [7] was 0 of 6 and the survivor count [9] was 0 of 6.
In the case of `CCN(CC)CCN(CC)CC.O.[Cu+2].[O-][Cl+3]([O-])([O-])O`, the survivor count (dose: 50.0 mg/kg/injection, schedule: Q01DX009 (ip), vehicle: Klucel (hydroxypropylcellulose) (HPC)) was 0 of 6, the survivor count (dose: 100.0 mg/kg/injection, schedule: Q01DX009 (ip), vehicle: Klucel (hydroxypropylcellulose) (HPC)) was 0 of 6 and the survivor count [10] was 0 of 6.
In the case of `C(=N/NC1=NCCN1)/c1c2ccccc2c(/C=N\NC2=NCCN2)c2ccccc12`, the T/C (dose: 0.1 mg/kg/injection, schedule: Q01DX009 (ip), vehicle: saline) was 145 % of control.
With `CCCNC(=S)Nc1ccc(F)cc1F` the T/C [11] was 91 % of control, the survivor count [11] was 2 of 6, 3 of 6, 6 of 6 and the survivor count (dose: 100.0 mg/kg/injection, schedule: Q01DX009 (ip), vehicle: other) was 0 of 6. For the same compound, the survivor count (dose: 200.0 mg/kg/injection, schedule: Q01DX009 (ip), vehicle: other) was 0 of 6.
`CCCCCC(Cn1ccnc1)c1c(Cl)cccc1Cl` (configuration not stated) was tested, and the survivor count (dose: 100.0 mg/kg/injection, schedule: Q04DX003 (ip), vehicle: saline) was 3 of 6, the survivor count (dose: 200.0 mg/kg/injection, schedule: Q04DX003 (ip), vehicle: saline) was 2 of 6 and the survivor count (dose: 400.0 mg/kg/injection, schedule: Q04DX003 (ip), vehicle: saline) was 1 of 6.
With `C(=N\Nc1ccc2ccccc2n1)/c1ccccn1.CC(=O)[O-].CC(=O)[O-].[Zn+2]` the survivor count (dose: 50.0 mg/kg/injection, schedule: Q01DX005 (ip), vehicle: saline with Tween-80) was 2 of 6, the survivor count (dose: 100.0 mg/kg/injection, schedule: Q01DX005 (ip), vehicle: saline with Tween-80) was 0 of 6 and the survivor count [2] was 0 of 6.
For `CCCCOC(=O)N(C)SN(C)C(=O)Oc1cccc(C(C)C)c1`, the survivor count [7] was 0 of 6 and the survivor count [9] was 0 of 6.
`CCN(CC)CCNc1c(C)cccc1Cl` was tested, and the survivor count [6] was 0 of 6.
In the case of `CCCCCCOC(=O)c1ccccc1OP(=O)(N(C)C)N(C)C`, the survivor count [8] was 0 of 6.
